Measurements from PubChem BioAssay AID256 (DTP/NCI, 2004).
The list does not hold the whole screen: it gathers tests that were run many times, whatever their T/C, doses with no T/C, and many T/C values between a quarter and a half above the control. Other doses and runs of a compound stand elsewhere. T/C gives the treated animals as a percentage of the vehicle group. Some entries give survivors of the animals treated and no T/C: the source holds a T/C of zero for them, seemingly a mark for toxic or unscored doses. Some doses without a T/C left all or most animals alive at the check, yet need not have been tolerated: the source hardly ever lists a survival T/C far under the control, and the zero likely stands for such cases as well. Survivors were counted at the toxicity check, usually on the fifth day, unless a day is given; later deaths do not show. Schedules are NCI's codes, taken here to give the interval after Q, in days (D) or hours (H), and the number of doses after X. Some doses were run more than once; the values are given in rising order. For survival time, the PubChem record calls one and a half times the control and up active, and a quarter to a half above the control has no call in these data; cut-offs in other NCI protocols can differ. Some T/C values carry the count of animals alive at the toxicity check (mostly the fifth day); without a count, all were alive then.

System: CD2F1 mice, L1210 leukemia ip, survival T/C
Assay: NCI In Vivo Anticancer Drug Screen. Data for tumor model L1210 Leukemia (intraperitoneal) in CD2F1 (CDF1) mice
Conditions: T/C endpoint: mean survival time, higher T/C = longer survival
Outline: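 Each value reflects a quotient of treated over vehicle control outcomes in mice with a transplanted tumor.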

[1] = dose: 0.31 mg/kg/injection, schedule: Q01DX009 (ip), vehicle: lactic acid
[2] = dose: 400.0 mg/kg/injection, schedule: Q04DX002 (ip), vehicle: saline with Tween-80
[3] = dose: 150.0 mg/kg/injection, schedule: Q01DX001 (ip), vehicle: saline
[4] = dose: 300.0 mg/kg/injection, schedule: Q01DX001 (ip), vehicle: saline
[5] = dose: 5.0 mg/kg/injection, schedule: Q01DX009 (ip), vehicle: saline
[6] = dose: 400.0 mg/kg/injection, schedule: Q01DX009 (ip), vehicle: saline with Tween-80
[7] = dose: 100.0 mg/kg/injection, schedule: Q04DX002 (ip), vehicle: saline with Tween-80

## CCOC(=O)Nc1cc(N(C)C)c(N)c(N)n1
dose: 400.0 mg/kg/injection, schedule: Q01DX001 (ip), vehicle: carboxymethylcellulose (CMC)
  survivor count: 3 of 6

## c1ccc(C2CC([P+](c3ccccc3)(c3ccccc3)c3ccccc3)=NN2CC[P+](c2ccccc2)(c2ccccc2)c2ccccc2)cc1 (stereo not drawn)
dose: 12.5 mg/kg/injection, schedule: Q04DX003 (ip), vehicle: saline with Tween-80
  survivor count: 0 of 6
dose: 25.0 mg/kg/injection, schedule: Q04DX003 (ip), vehicle: saline with Tween-80
  survivor count: 0 of 6
dose: 50.0 mg/kg/injection, schedule: Q04DX003 (ip), vehicle: saline with Tween-80
  survivor count: 0 of 6

## O=C(O)c1cc2ccccc2cn1
dose: 200.0 mg/kg/injection, schedule: Q01DX009 (ip), vehicle: saline
  survivor count: 0 of 6

## Cn1c(=O)c2c(ncn2C(C=O)OC(C=O)CO)n(C)c1=O (stereo not drawn)
dose: 200.0 mg/kg/injection, schedule: Q01DX005 (ip), vehicle: water
  survivor count: 3 of 6

## COc1ccc2c(NCCCCCCNc3c4ccccc4nc4cc(OC)ccc34)c3ccccc3nc2c1
dose: 0.07 mg/kg/injection, schedule: Q01DX009 (ip), vehicle: lactic acid
  survivor count: 3 of 6
dose: 0.15 mg/kg/injection, schedule: Q01DX009 (ip), vehicle: lactic acid
  survivor count: 2 of 6
[1]
  T/C: 132 % of control
  survivor count: 6 of 6
dose: 0.62 mg/kg/injection, schedule: Q01DX009 (ip), vehicle: lactic acid
  survivor count: 2 of 6
dose: 0.63 mg/kg/injection, schedule: Q01DX009 (ip), vehicle: lactic acid
  T/C: 127 % of control [5 of 6 alive]
dose: 1.25 mg/kg/injection, schedule: Q01DX009 (ip), vehicle: lactic acid
  survivor count: 0 of 6
dose: 2.5 mg/kg/injection, schedule: Q01DX009 (ip), vehicle: lactic acid
  survivor count: 0 of 6

## CCCCCCCCS.[Ni]
dose: 50.0 mg/kg/injection, schedule: Q01DX009 (ip), vehicle: other
  survivor count: 2 of 6
dose: 100.0 mg/kg/injection, schedule: Q01DX009 (ip), vehicle: other
  survivor count: 0 of 6
dose: 200.0 mg/kg/injection, schedule: Q01DX009 (ip), vehicle: other
  survivor count: 0 of 6

## CCC(c1ccc(O)c(CN(CC)CC)c1)C(CC)c1ccc(O)c(CN(CC)CC)c1 (stereo not drawn)
[2]
  survivor count: 0 of 3

## Nc1ncnc2c1c(Cl)cn2C1OC(CO)C(O)C1O (stereo not drawn)
dose: 75.0 mg/kg/injection, schedule: Q01DX001 (ip), vehicle: saline
  survivor count: 1 of 6
[3]
  survivor count: 0 of 6
[4]
  survivor count: 0 of 6

## O/N=C/C(O)(c1ccccc1)c1ccccc1
[2]
  survivor count: 3 of 3

## O=C1C=C(Nc2ccc([N+](=O)[O-])cc2)c2ccccc2C1=O
[4]
  survivor count: 3 of 6

## CC1(C)OCC(CO)(Nc2nc(N3CC3)nc(N3CC3)n2)CO1
dose: 0.62 mg/kg/injection, schedule: Q01DX009 (ip), vehicle: saline
  T/C: 132 % of control
dose: 1.25 mg/kg/injection, schedule: Q01DX009 (ip), vehicle: saline
  T/C: 131 and 137 % of control
[5]
  T/C: 143, 158, 247 % of control
  survivor count: 6 of 6
dose: 10.0 mg/kg/injection, schedule: Q01DX009 (ip), vehicle: saline
  survivor count: 10 of 10 and 6 of 6
dose: 20.0 mg/kg/injection, schedule: Q01DX009 (ip), vehicle: saline
  survivor count: 7 of 10
dose: 40.0 mg/kg/injection, schedule: Q01DX009 (ip), vehicle: saline
  survivor count: 3 of 10

## N#CC(OC(=O)c1ccccc1)c1cccc([N+](=O)[O-])c1 (stereo not drawn)
[6]
  survivor count: 5 of 6

## C[n+]1cn(Cc2ccccc2)c2c([O-])n[nH]c(=O)c21
dose: 9.4 mg/kg/injection, schedule: Q01DX005 (ip), vehicle: other
  survivor count: 3 of 3
dose: 18.8 mg/kg/injection, schedule: Q01DX005 (ip), vehicle: other
  survivor count: 3 of 3
dose: 37.5 mg/kg/injection, schedule: Q01DX005 (ip), vehicle: other
  survivor count: 3 of 3
dose: 75.0 mg/kg/injection, schedule: Q01DX005 (ip), vehicle: other
  survivor count: 3 of 3
dose: 150.0 mg/kg/injection, schedule: Q01DX005 (ip), vehicle: other
  survivor count: 3 of 3

## CC(=O)Nc1ccccc1.[Hg]
dose: 6.25 mg/kg/injection, schedule: Q01DX009 (ip), vehicle: saline with Tween-80
  survivor count: 5 of 6
dose: 12.5 mg/kg/injection, schedule: Q01DX009 (ip), vehicle: saline with Tween-80
  survivor count: 0 of 6
dose: 25.0 mg/kg/injection, schedule: Q01DX009 (ip), vehicle: saline with Tween-80
  survivor count: 0 of 6
dose: 25.0 mg/kg/injection, schedule: Q04DX002 (ip), vehicle: saline with Tween-80
  survivor count: 0 of 3
dose: 50.0 mg/kg/injection, schedule: Q04DX002 (ip), vehicle: saline with Tween-80
  survivor count: 0 of 3
[7]
  survivor count: 0 of 3

## O=C(O)c1c[nH]c2ccc([N+](=O)[O-])cc2c1=O
dose: 200.0 mg/kg/injection, schedule: Q01DX001 (ip), vehicle: Klucel (hydroxypropylcellulose) (HPC)
  T/C: 128 % of control

## N=C(N)N1CCc2ccccc2C1
[3]
  survivor count: 1 of 6
[4]
  survivor count: 0 of 6

## N#CCCN1c2ccccc2Sc2ccccc21
dose: 300.0 mg/kg/injection, schedule: Q04DX003 (ip), vehicle: saline
  survivor count: 0 of 6

## O=C(O)COc1ccc(Cl)cc1Cl (tested in a mixture with another compound)
[7]
  survivor count: 3 of 3
[2]
  survivor count: 0 of 3

## CC(C)=CCNc1ncnc2c1ncn2C1OC(CO)C(O)C1O (stereo not drawn)
dose: 200.0 mg/kg/injection, schedule: Q01DX009 (ip), vehicle: saline with Tween-80
  survivor count: 1 of 6
[6]
  survivor count: 0 of 6

## CC(=O)Oc1ccc2ccccc2c1
dose: 100.0 mg/kg/injection, schedule: Q01DX009 (ip), vehicle: saline with Tween-80
  survivor count: 2 of 6
dose: 200.0 mg/kg/injection, schedule: Q01DX001 (ip), vehicle: saline with Tween-80
  survivor count: 0 of 6
dose: 400.0 mg/kg/injection, schedule: Q01DX001 (ip), vehicle: saline with Tween-80
  survivor count: 0 of 6
